Data from PMC11079228.
These are yes or no findings as the source states them, for the method shown. In cells and extracts the contact can be indirect. Here binding means that the protein was enriched with, or labelled near, the bait; the list need not be complete.

target: Huntingtin-interacting protein 1 (rat) (rat (endogenous in rat FLS)); test: affinity purification with mass spectrometry; rabbit anti-rat-HIP1 antibody (20 μg per sample) on Dynabeads M-270 Epoxy; total lysates of rat FLS (one DA and one R6 cell line, each in triplicate), starved 24 h, then PDGFβ 100 ng/mL 30 min; lysis in water with protease and phosphatase inhibitors by three freeze-thaw cycles; elution with 8 M urea, LysC and trypsin, nano-LC-MS/MS, label-free quantitation

Binder | binding
Lactadherin (protein, UniProt P70490 23-427) ASGDFCDSSLCLNGGTCLMGQDNDIYCLCPEGFTGLVCNETEKGPCSPNPCFHDAKCLVTEDTQRGDIFTEYICQCPVGYSGIHCELGCSTKLGLEGGAIADSQISASSVYMGFMGLQRWGPELARLYRTGIVNAWTASSYDSKPWIQVDFLRKMRVSGVMTQGASRAGRAEYLKTFKVAYSLDGRRFEFIQDESGTGDKEFMGNQDNNSLKINMFNPTLEAQYIRLYPVSCHRGCTLRFELLGCELHGCSEPLGLKNNTIPDSQITASSSYKTWNLRAFGWYPHLGRLDNQGKINAWTAQSNSAKEWLQVDLGTQKKVTGIITQGARDFGHIQYVASYKVAHSDDGVQWTVYEEQGTSKVFQGNLDNNSHKKNIFEKPFMARYVRVLPLSWHNRITLRLELLGC | binds
Adaptin ear-binding coat-associated protein 1 (protein, UniProt P69682 1-277) MAAELEYESVLCVKPDVSVYRIPPRASNRGYRASDWKLDQPDWTGRLRITSKGKIAYIKLEDKVSGELFAQAPVEQYPGIAVETVADSSRYFVIRIQDGTGRSAFIGIGFTDRGDAFDFNVSLQDHFKWVKQETEISKESQEMDSRPKLDLGFKEGQTIKLSIGNITAKKGGTSKPRASGTGGLSLLPPPPGGKVTIPPPSSSVAISNHVTPPPIPKSNHGSNDSDILLDLDSPAPVPTSAPAPAPASTSNDLWGDFSTASSSVPNQAPQPSNWVQF | binds
ACO2 (protein, UniProt Q9ER34 28-780) QRAKVAMSHFEPSEYIRYDLLEKNINIVRKRLNRPLTLSEKIVYGHLDDPANQEIERGKTYLRLRPDRVAMQDATAQMAMLQFISSGLPKVAVPSTIHCDHLIEAQLGGEKDLRRAKDINQEVYNFLATAGAKYGVGFWRPGSGIIHQIILENYAYPGVLLIGTDSHTPNGGGLGGICIGVGGADAVDVMAGIPWELKCPKVIGVKLTGTLSGWTSPKDVILKVAGILTVKGGTGAIVEYHGPGVDSISCTGMATICNMGAEIGATTSVFPYNHRMKKYLSKTGRADIANLAEEFKDHLVPDPGCQYDQVIEINLNELKPHINGPFTPDLAHPVADVGTVAEKEGWPLDIRVGLIGSCTNSSYEDMGRSAAVAKQALAHGLKCKSQFTITPGSEQIRATIERDGYAQILRDVGGIVLANACGPCIGQWDRKDIKKGEKNTIVTSYNRNFTGRNDANPETHAFVTSPEIVTALAIAGTLKFNPETDFLTGKDGKKFKLEAPDADELPRSDFDPGQDTYQHPPKDSSGQRVDVSPTSQRLQLLEPFDKWDGKDLEDLQILIKVKGKCTTDHISAAGPWLKFRGHLDNISNNLLIGAINIENGKANSVRNAVTQEFGPVPDTARYYKKHGIRWVVIGDENYGEGSSREHAALEPRHLGGRAIITKSFARIHETNLKKQGLLPLTFADPSDYNKIHPVDKLTIQGLKDFAPGKPLNCIIKHPNGTQETILLNHTFNETQIEWFRAGSALNRMKELQQ | binds
RNA-binding motif protein, X chromosome retrogene-like; (protein, UniProt Q4V898 1-390) MVEADRPGKLFIGGLNTETNEKALEAVFGKYGRIVEVLLMKDRETNKSRGFAFVTFESPADAKDAARDMNGKSLDGKAIKVEQATKPSFESGRRGLPPPPRSRGPPRGLRGGRGGSGGTRGPPSRGGHMDDGGYSMNFTLSSSRGPLPVKRGPPPRSGGPPPKRSAPSGPVRSSSGMGGRAPVSRGRDGYGGPPRREPLPSRRDVYLSPRDDGYSTKDSYSSRDYPSSRDTRDYAPPPRDYTYRDYGHSSSRDDYPSRGYSDRDGYGRERDYSDHPSGGSYRDSYESYGNSRSAPPTRGPPPSYGGSSRYDDYSSSRDGYGGSRDSYTSSRSDLYSSGRDRVGRQERGLPPSMERGYPPPRDSYSSSSRGAPRGGGRGGSRSDRGGRSRY | binds
Na(+)/H(+) exchange regulatory cofactor NHE-RF1 (protein, UniProt Q9JJ19 1-356) MSADAAAGEPLPRLCCLEKGPNGYGFHLHGEKGKVGQFIRLVEPGSPAEKSGLLAGDRLVEVNGENVEKETHQQVVSRIRAALNAVRLLVVDPETDEQLKKLGVPIREELLRAQEKSEHTEPPAAADTKKAGDQNEAEKSHLERCELRPRLCTMKKGPNGYGFNLHSDKSKPGQFIRAVDPDSPAEASGLRAQDRIVEVNGVCMEGKQHGDVVSAIKAGGDEAKLLVVDKETDEFFKKCRVTPSQEHLDGPLPEPFSNGEIQKENSREALVEPASESPRPALARSASSDTSEELNAQDSPKRHDSTEPSSTSSSSDPILDFNISLAVAKERAHQKRSSKRAPQMDWSKKNELFSNL | binds
